{"source": "patent US8927599B2", "about": "“Use of statins as anticonvulsants, antiepileptics and neuroprotectors” (Neuron Biopharma, S.A., priority 2008, dated 2015)", "type_in_all_cases": "in vivo", "key": {"[1]": {"test_system": "male mice of the FVB/N strain inoculated with kainate (KA)", "assay": "Survival after kainate inoculation (Example 4)", "conditions": "KA 30 mg/kg i.p.; 50 mg/kg i.p. pretreatment and daily until 7 d.p.i.; FIG. 6"}, "[2]": {"test_system": "hippocampus of FVB/N mice inoculated with kainate (KA)", "assay": "Neurodegeneration of the hippocampus, Fluoro Jade B stain (Example 6)", "conditions": "KA 30 mg/kg; 50 mg/kg i.p. pretreatment and daily until 7 d.p.i.; FIG. 8"}, "[3]": {"test_system": "hippocampus of FVB/N mice inoculated with kainate (KA)", "assay": "Neuronal death in the hippocampus, hematoxylin and eosin stain (Example 5)", "conditions": "KA 30 mg/kg; 50 mg/kg i.p. pretreatment and daily until 7 d.p.i.; PBS+KA: CA1, CA2, CA3 and dentate gyrus; FIG. 7"}, "[4]": {"test_system": "sensorimotor cortex of FVB/N mice inoculated with kainate (KA)", "assay": "Lipid peroxidation, HNE immunohistochemistry (Example 9)", "conditions": "KA 30 mg/kg; 50 mg/kg i.p. pretreatment and daily until 7 d.p.i.; FIG. 11"}, "[5]": {"test_system": "hippocampus of FVB/N mice inoculated with kainate (KA)", "assay": "Neuronal death by apoptosis in the hippocampus, Acridine Orange staining (Example 7)", "conditions": "KA 30 mg/kg, 50 mg/kg i.p. pretreatment and daily until 7 d.p.i., FIG. 9"}, "[6]": {"test_system": "male mice of the FVB/N strain inoculated with kainate (KA)", "assay": "Dose dependency of the antiepileptic effect, kainate model (Example 2)", "conditions": "KA 25 mg/kg i.p.; i.p. pretreatment at 24 and 0.5 h; drastic difference after 60 m.p.i.; FIG. 4"}, "[7]": {"test_system": "hippocampus of FVB/N mice inoculated with kainate (KA)", "assay": "Reactive gliosis in the hippocampus, GFAP immunohistochemistry (Example 8)", "conditions": "KA 30 mg/kg; 50 mg/kg i.p. pretreatment and daily until 7 d.p.i.; FIG. 10"}}, "note": "At least one structure is not confirmed: it was looked up by name or label, or the drawing left a doubt."}
{"smiles": "CCC(C)(C)C(=O)O[C@H]1C[C@@H](C)C=C2C=C[C@H](C)[C@H](CC[C@@H]3C[C@@H](O)CC(=O)O3)[C@H]21", "note": "[simvastatin]", "values": [{"measurement": "survival rate versus PBS", "setting": "[1]", "value": "higher survival rate"}, {"measurement": "degenerating neurons of the hippocampus and intensity of Fluoro Jade B labeling", "setting": "[2]", "value": "qualitatively reduces the number of degenerating neurons of the hippocampus and the intensity of the labeling with Fluoro Jade B"}, {"measurement": "areas of the hippocampus affected by neuronal death (hematoxylin and eosin)", "setting": "[3]", "value": "restricted to the CA2 region"}, {"measurement": "HNE labeling in pyramidal neurons of the sensorimotor cortex (lipid peroxidation)", "setting": "[4]", "value": "qualitatively reduces the number of labeled neurons and the intensity of the HNE signal"}, {"measurement": "number of neurons in apoptosis (Acridine Orange)", "setting": "[5]", "value": "qualitatively reduces the number of neurons in apoptosis"}, {"measurement": "regions of the hippocampus with positive labeling for apoptosis", "setting": "[5]; PBS+KA: CA1, CA2, CA3 and dentate gyrus", "value": "exclusively restricted to the CA2 region of the hippocampus"}, {"measurement": "epilepsy level (Racine scale), 50 mg/kg versus 10 mg/kg", "setting": "[6]", "value": "lower epilepsy level"}, {"measurement": "astrocytic activation in the neuropil of the hippocampus (GFAP)", "setting": "[7]", "value": "qualitatively reduces this activation and the presence of astrocytes"}]}
